To fix the notation:
B1: ATP5J (protein, UniProt P18859 33-108)
chain: NKELDPIQKLFVDKIREYKSKRQTSGGPVDASSEYQQELERELFKLKQMFGNADMNTFPTFKFEDPKFEVIEKPQA
B2: RNF111 (protein, UniProt Q6ZNA4 1-994)
chain: MSQWTPEYNELYTLKVDMKSEIPSDAPKTQESLKGILLHPEPIGAAKSFPAGVEMINSKVGNEFSHLCDDSQKQEKEMNGNQQEQEKSLVVRKKRKSQQAGPSYVQNCVKENQGILGLRQHLGTPSDEDNDSSFSDCLSSPSSSLHFGDSDTVTSDEDKEVSVRHSQTILNAKSRSHSARSHKWPRTETESVSGLLMKRPCLHGSSLRRLPCRKRFVKNNSSQRTQKQKERILMQRKKREVLARRKYALLPSSSSSSENDLSSESSSSSSTEGEEDLFVSASENHQNNPAVPSGSIDEDVVVIEASSTPQVTANEEINVTSTDSEVEIVTVGESYRSRSTLGHSRSHWSQGSSSHASRPQEPRNRSRISTVIQPLRQNAAEVVDLTVDEDEPTVVPTTSARMESQATSASINNSNPSTSEQASDTASAVTSSQPSTVSETSATLTSNSTTGTSIGDDSRRTTSSAVTETGPPAMPRLPSCCPQHSPCGGSSQNHHALGHPHTSCFQQHGHHFQHHHHHHHTPHPAVPVSPSFSDPACPVERPPQVQAPCGANSSSGTSYHEQQALPVDLSNSGIRSHGSGSFHGASAFDPCCPVSSSRAAIFGHQAAAAAPSQPLSSIDGYGSSMVAQPQPQPPPQPSLSSCRHYMPPPYASLTRPLHHQASACPHSHGNPPPQTQPPPQVDYVIPHPVHAFHSQISSHATSHPVAPPPPTHLASTAAPIPQHLPPTHQPISHHIPATAPPAQRLHPHEVMQRMEVQRRRMMQHPTRAHERPPPHPHRMHPNYGHGHHIHVPQTMSSHPRQAPERSAWELGIEAGVTAATYTPGALHPHLAHYHAPPRLHHLQLGALPLMVPDMAGYPHIRYISSGLDGTSFRGPFRGNFEELIHLEERLGNVNRGASQGTIERCTYPHKYKKVTTDWFSQRKLHCKQDGEEGTEEDTEEKCTICLSILEEGEDVRRLPCMHLFHQVCVDQWLITNKKCPICRVDIEAQLPSES
B3: PRPF3 (protein, UniProt O43395 1-683)
chain: MALSKRELDELKPWIEKTVKRVLGFSEPTVVTAALNCVGKGMDKKKAADHLKPFLDDSTLRFVDKLFEAVEEGRSSRHSKSSSDRSRKRELKEVFGDDSEISKESSGVKKRRIPRFEEVEEEPEVIPGPPSESPGMLTKLQIKQMMEAATRQIEERKKQLSFISPPTPQPKTPSSSQPERLPIGNTIQPSQAATFMNDAIEKARKAAELQARIQAQLALKPGLIGNANMVGLANLHAMGIAPPKVELKDQTKPTPLILDEQGRTVDATGKEIELTHRMPTLKANIRAVKREQFKQQLKEKPSEDMESNTFFDPRVSIAPSQRQRRTFKFHDKGKFEKIAQRLRTKAQLEKLQAEISQAARKTGIHTSTRLALIAPKKELKEGDIPEIEWWDSYIIPNGFDLTEENPKREDYFGITNLVEHPAQLNPPVDNDTPVTLGVYLTKKEQKKLRRQTRREAQKELQEKVRLGLMPPPEPKVRISNLMRVLGTEAVQDPTKVEAHVRAQMAKRQKAHEEANAARKLTAEQRKVKKIKKLKEDISQGVHISVYRVRNLSNPAKKFKIEANAGQLYLTGVVVLHKDVNVVVVEGGPKAQKKFKRLMLHRIKWDEQTSNTKGDDDEESDEEAVKKTNKCVLVWEGTAKDRSFGEMKFKQCPTENMAREHFKKHGAEHYWDLALSESVLESTD
B4: ATP5I (protein, UniProt P56385 1-69)
chain: MVPPVQVSPLIKLGRYSALFLGVAYGATRYNYLKPRAEEERRIAAEEKKKQDELKRIARELAEDDSILK
B5: SREK1 (protein, UniProt Q8WXA9 1-508)
chain: MTSLMPGAGLLPIPTPNPLTTLGVSLSSLGAIPAAALDPNIATLGEIPQPPLMGNVDPSKIDEIRRTVYVGNLNSQTTTADQLLEFFKQVGEVKFVRMAGDETQPTRFAFVEFADQNSVPRALAFNGVMFGDRPLKINHSNNAIVKPPEMTPQAAAKELEEVMKRVREAQSFISAAIEPESGKSNERKGGRSRSHTRSKSRSSSKSHSRRKRSQSKHRSRSHNRSRSRQKDRRRSKSPHKKRSKSRERRKSRSRSHSRDKRKDTREKIKEKERVKEKDREKEREREKEREKEKERGKNKDRDKEREKDREKDKEKDREREREKEHEKDRDKEKEKEQDKEKEREKDRSKEIDEKRKKDKKSRTPPRSYNASRRSRSSSRERRRRRSRSSSRSPRTSKTIKRKSSRSPSPRSRNKKDKKREKERDHISERRERERSTSMRKSSNDRDGKEKLEKNSTSLKEKEHNKEPDSSVSKEVDDKDAPRTEENKIQHNGNCQLNEENLSTKTEAV

Chains of the proteins cited; added tags and fusions are not shown.
UniProt Q9UJ70: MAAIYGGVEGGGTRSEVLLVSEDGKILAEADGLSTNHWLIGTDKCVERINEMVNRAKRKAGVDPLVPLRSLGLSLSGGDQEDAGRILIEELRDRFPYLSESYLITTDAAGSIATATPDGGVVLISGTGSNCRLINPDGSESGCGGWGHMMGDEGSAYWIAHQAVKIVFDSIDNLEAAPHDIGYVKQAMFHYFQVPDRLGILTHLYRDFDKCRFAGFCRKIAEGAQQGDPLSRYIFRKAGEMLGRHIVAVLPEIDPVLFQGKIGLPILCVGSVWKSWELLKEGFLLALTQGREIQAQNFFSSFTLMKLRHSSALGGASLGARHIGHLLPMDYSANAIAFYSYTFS
UniProt O95168: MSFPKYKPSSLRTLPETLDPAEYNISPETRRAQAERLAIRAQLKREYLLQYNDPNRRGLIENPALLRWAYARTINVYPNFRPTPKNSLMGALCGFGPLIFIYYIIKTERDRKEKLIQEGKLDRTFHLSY
UniProt P35637: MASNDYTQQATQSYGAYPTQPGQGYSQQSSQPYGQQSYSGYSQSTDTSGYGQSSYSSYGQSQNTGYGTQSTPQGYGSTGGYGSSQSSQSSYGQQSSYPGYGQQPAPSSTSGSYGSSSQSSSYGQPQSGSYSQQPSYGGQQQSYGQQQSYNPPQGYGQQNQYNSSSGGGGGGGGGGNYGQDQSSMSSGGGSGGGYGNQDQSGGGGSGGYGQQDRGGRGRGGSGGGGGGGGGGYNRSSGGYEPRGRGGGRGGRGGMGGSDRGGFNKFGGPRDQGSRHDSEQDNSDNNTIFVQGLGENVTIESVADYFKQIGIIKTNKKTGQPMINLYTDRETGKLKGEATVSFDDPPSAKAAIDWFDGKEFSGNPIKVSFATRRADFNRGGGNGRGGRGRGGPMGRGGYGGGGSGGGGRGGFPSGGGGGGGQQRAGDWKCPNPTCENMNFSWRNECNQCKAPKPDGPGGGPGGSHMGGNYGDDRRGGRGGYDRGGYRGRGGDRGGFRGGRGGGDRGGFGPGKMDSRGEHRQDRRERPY
UniProt P35269: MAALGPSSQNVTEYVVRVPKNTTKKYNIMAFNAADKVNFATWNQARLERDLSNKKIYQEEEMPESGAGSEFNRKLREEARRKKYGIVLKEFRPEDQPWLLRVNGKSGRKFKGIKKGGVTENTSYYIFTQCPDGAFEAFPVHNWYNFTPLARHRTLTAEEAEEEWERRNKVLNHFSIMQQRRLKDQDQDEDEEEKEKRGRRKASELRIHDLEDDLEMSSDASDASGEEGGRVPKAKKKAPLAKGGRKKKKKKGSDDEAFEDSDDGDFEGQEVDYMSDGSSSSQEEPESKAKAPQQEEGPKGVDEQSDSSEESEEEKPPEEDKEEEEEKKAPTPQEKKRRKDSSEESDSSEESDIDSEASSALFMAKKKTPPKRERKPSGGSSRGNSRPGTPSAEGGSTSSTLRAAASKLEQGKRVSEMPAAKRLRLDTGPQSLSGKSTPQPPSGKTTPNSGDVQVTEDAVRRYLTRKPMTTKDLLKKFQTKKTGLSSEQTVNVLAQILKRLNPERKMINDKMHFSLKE
UniProt Q13049: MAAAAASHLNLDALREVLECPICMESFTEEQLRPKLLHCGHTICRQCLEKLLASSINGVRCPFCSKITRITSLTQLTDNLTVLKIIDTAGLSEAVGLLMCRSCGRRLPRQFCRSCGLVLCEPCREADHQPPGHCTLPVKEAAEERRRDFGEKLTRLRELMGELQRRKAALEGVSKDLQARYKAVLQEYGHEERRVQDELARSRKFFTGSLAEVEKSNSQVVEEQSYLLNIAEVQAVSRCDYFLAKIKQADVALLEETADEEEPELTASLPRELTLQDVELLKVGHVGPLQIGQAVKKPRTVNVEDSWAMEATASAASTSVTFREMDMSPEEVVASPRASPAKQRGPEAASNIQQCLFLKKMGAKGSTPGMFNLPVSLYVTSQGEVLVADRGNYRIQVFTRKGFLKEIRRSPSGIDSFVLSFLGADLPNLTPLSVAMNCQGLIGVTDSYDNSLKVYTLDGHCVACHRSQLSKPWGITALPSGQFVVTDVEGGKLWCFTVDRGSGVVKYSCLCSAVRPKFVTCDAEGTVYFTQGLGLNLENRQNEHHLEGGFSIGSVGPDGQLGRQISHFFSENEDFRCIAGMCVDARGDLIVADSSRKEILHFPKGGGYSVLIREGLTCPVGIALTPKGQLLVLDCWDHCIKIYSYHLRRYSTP

These are yes or no findings as the source states them, for the method shown. Binding seen in cells or lysates may run through a third protein. Here binding means that the protein was enriched with, or labelled near, the bait; the list need not be complete.

The assay concerns the target site-specifically pyrophosphorylated N-acetylglucosamine kinase (ppS76-NAGK), His6-tagged (UniProt Q9UJ70). The assay is described as follows: affinity purification with mass spectrometry; HEK293T lysates incubated with His6-tagged wt-NAGK or ppS76-NAGK; immobilised on nickel beads, washed, eluted with imidazole; high-resolution mass spectrometry, LFQ values of ppS76-NAGK versus wt-NAGK compared (volcano plot, thresholds log2 > 2 and -log10P > 2); only the target purified.
As to NDUFB4 (from UniProt O95168 1-129), the binding entry is given as “binds”.
The value for FUS (from UniProt P35637 1-526) was “binds”; that for GTF2F1 (from UniProt P35269 1-517) was “binds”.
Under TRIM32 (from UniProt Q13049 1-653) stands “binds”.
Under B1 stands “binds”; under B2, “binds”; under B3, “binds”.
In the case of B4, the binding result was “binds”.
In the case of B5, the binding entry was “binds”.

The values above are taken from paper PMC11140747.
